Values from PubChem BioAssay AID686943 (Drosophila RNAi Screening Center, 2013)
Aim: 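Knockdowns that increase or decrease active ERK after insulin receptor stimulation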 (primary screen). Cell system: Drosophila S2R+ haemocyte-like cells expressing YFP-tagged ERK (Rolled). Knock-down reagent: long dsRNA against Drosophila genes. Challenge: insulin stimulation versus unstimulated cells; dose and duration not given. Measured: 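Antibody staining for doubly phosphorylated ERK divided by ERK-YFP signal, as plate z-scores, in insulin-treated and untreated cells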. Direction: replicate 1, z-score of dpERK with insulin: higher = more active ERK per ERK-YFP after insulin.
In all, the deposit lists about 23,000 reagents; shown is an unselected part of those with a known target gene and a result. 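Extra replicates exist only for a retested subset of genes; insulin dose and duration not given; both raised and lowered dpERK matter.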 Names joined by + are all predicted targets of the reagent. Further read-outs or replicates are left out here. No sequences are given here. Not given: the amount of reagent, the time to read-out.

no.	predicted target	amplicon	replicate 1, z-score of dpERK with insulin
1	CG6118	DRSC15968	2.58
2	Sodq (Sodesque)	DRSC15924	-0.43
3	Rdh (Red herring)	DRSC08063	-2.49
4	Rdh (Red herring)	DRSC08434	-1.75
5	CG8320 + ATPCL	DRSC07147	0.86
6	CG16926	DRSC06637	0.54
7	CG17593	DRSC00504	0.36
8	CG8997	DRSC01900	-0.5
9	CR40441 (pseudo)	DRSC22916	-0.36
10	MstProx	DRSC12458	0.83
11	MstProx	DRSC12601	0.11
12	Nrd1 (Nardilysin)	DRSC19830	-0.44
13	CG4836	DRSC15659	1.5
14	CG4836	DRSC22066	0.12
15	CG13344	DRSC06378	0.58
16	CG12914	DRSC06229	0.44
17	ebd1 (earthbound 1)	DRSC08565	0.67
18	tsu (tsunagi)	DRSC07265	0.3
19	CG15126	DRSC06548	0.47
20	frj (farjavit)	DRSC03250	-0.7
21	Nepl12 (Neprilysin-like 12)	DRSC16411	-0.32
22	sano (serrano)	DRSC06165	1.33
23	PH4alphaNE3 (prolyl-4-hydroxylase-alpha NE3)	DRSC16541	-1.53
24	CG10909	DRSC14282	-0.76
25	CG12398	DRSC19454	-1.71
26	Gr98a (Gustatory receptor 98a)	DRSC14719	-0.59
27	Pink1 (PTEN-induced putative kinase 1)	DRSC18361	0.28
28	Got1 (Glutamate oxaloacetate transaminase 1)	DRSC07177	0.02
29	Acp76A (Accessory gland protein 76A)	DRSC09665	-0.07
30	CG33483	DRSC14019	0.13
31	PrBP (Prenyl-binding protein)	DRSC03189	1.31
32	unc-4	DRSC20381	1.24
33	unc-4	DRSC22074	0.04
34	tnc (tenectin)	DRSC14647	-1.88
35	MICU1 (Mitochondrial calcium uptake 1)	DRSC02752	-0.82
36	Pcl (Polycomblike)	DRSC07503	0.04
37	Mef2 (Myocyte enhancer factor 2)	DRSC07468	0.68
38	Fntb (Farnesyl transferase beta subunit)	DRSC15244	0.29
39	hng2 (hinge2)	DRSC16412	0.39
40	CG32374	DRSC10986	0.71
41	pes (peste)	DRSC03033	-0.05
42	CG4789	DRSC19918	-0.17
43	CG12522	DRSC09088	0.49
44	lectin-24Db	DRSC00553	-0.06
45	CG15369	DRSC18041	-0.03
46	Vha36-2 (Vacuolar H[+] ATPase 36kD subunit 2)	DRSC06294	-0.14
47	FMRFaR (FMRFamide Receptor)	DRSC08555	0.55
48	asRNA:CR30267 + CG42260	DRSC03953	-0.24
49	CG46339	DRSC14136	0.36
50	rpk (ripped pocket)	DRSC12386	-0.25
51	rpk (ripped pocket)	DRSC21656	0.74
52	Syx1A (Syntaxin 1A)	DRSC15359	0.31
53	Syx1A (Syntaxin 1A)	DRSC21554	-0.46
54	mtrm (matrimony)	DRSC10322	-1.74
55	Rpn5 (Regulatory particle non-ATPase 5)	DRSC12367	-2.58
56	CG5039	DRSC15703	0.13
57	CG11601	DRSC00318	0.04

Not a retest: entries from further up.
no.	predicted target	amplicon	replicate 1, z-score of dpERK with insulin
38	Fntb (Farnesyl transferase beta subunit)	DRSC15244	0.29
39	hng2 (hinge2)	DRSC16412	0.39
40	CG32374	DRSC10986	0.71
41	pes (peste)	DRSC03033	-0.05
42	CG4789	DRSC19918	-0.17
43	CG12522	DRSC09088	0.49
44	lectin-24Db	DRSC00553	-0.06
